Measured values reported in patent publication US8785682B2, “Tetranor PGDM: a biomarker of PGD2 synthesis in vivo” (The Trustees of the University of Pennsylvania, priority 2007, dated 2014).

Experiment: Endogenous PGD2 metabolites in human urine by HPLC/MS/MS
Type: in vivo
Settings: no treatment, mean±SEM

| SMILES | level of endogenous PGD2 metabolite in human urine |
| --- | --- |
| CCCCC[C@H](O)/C=C/[C@@H]1[C@@H](C/C=C\CC(=O)O)[C@@H](O)C[C@@H]1O [2,3-dinor-11β-PGF2α] | 0.6±0.1 ng/mg creatinine |
| CCCCC[C@H](O)/C=C/[C@@H]1[C@@H](C/C=C\CCCC(=O)O)[C@@H](O)C[C@@H]1O [11β-PGF2α] | below the limits of detection |
| O=C(O)CCCCC(=O)CC[C@H]1C(=O)C[C@H](O)[C@@H]1CCC(=O)O [tetranor PGDM, 11,15-dioxo-9α-hydroxy-2,3,4,5-tetranor-prostan-1,20-dioic acid] | 1.5±0.3 ng/mg creatinine |
